Source: publication PMC10687080, “Resurrecting ancestral antibiotics: unveiling the origins of modern lipid II targeting glycopeptides” (Nature Communications, 2023)
These are yes or no findings as the source states them, for the method shown. Some entries that bind do so weakly or less than the wild type. Sequences can lack the tags named with a protein.

Assays:
Test in all cases: crystal structure; A_(core) construct co-expressed with Tcp13 in E. coli, purified together, crystallised as a complex by sitting drop vapour diffusion at 20 °C; 8GJ4 solved with two dimers of Tcp9 A1_(core-tei)/Tcp13; both purified
[1] = biological target: Tcp9 A1_(core-Tei), A_(core) construct of the Hpg-accepting A1 adenylation domain from teicoplanin biosynthesis (residues 9-398) (UniProt Q70AZ9)
[2] = biological target: Tcp9 A1_(core-ANC3), pocket graft of the ANC3 substrate pocket into A1_(core-tei) (UniProt Q70AZ9)
[3] = biological target: Tcp9 A1_(core-ANC2), pocket graft of the ANC2 substrate pocket into A1_(core-tei) (UniProt Q70AZ9)

Measured: binding

B1: MbtH-like protein Tcp13 from Actinoplanes teichomyceticus (protein, UniProt Q70AZ5 1-69)
chain: MTNPFDNEDGSFLVLVNGEGQHSLWPAFAEVPDGWTGVHGPASRQDCLGYVEQNWTDLRPKSLISQISD
binds: all assays above
